# Results published in patent US20170285043A1.
# Chains of the proteins cited; added tags and fusions are not shown. Lines headed by an entry give the natural chain unless they say otherwise; changes in a name come on top.
# UniProt Q9NXC5: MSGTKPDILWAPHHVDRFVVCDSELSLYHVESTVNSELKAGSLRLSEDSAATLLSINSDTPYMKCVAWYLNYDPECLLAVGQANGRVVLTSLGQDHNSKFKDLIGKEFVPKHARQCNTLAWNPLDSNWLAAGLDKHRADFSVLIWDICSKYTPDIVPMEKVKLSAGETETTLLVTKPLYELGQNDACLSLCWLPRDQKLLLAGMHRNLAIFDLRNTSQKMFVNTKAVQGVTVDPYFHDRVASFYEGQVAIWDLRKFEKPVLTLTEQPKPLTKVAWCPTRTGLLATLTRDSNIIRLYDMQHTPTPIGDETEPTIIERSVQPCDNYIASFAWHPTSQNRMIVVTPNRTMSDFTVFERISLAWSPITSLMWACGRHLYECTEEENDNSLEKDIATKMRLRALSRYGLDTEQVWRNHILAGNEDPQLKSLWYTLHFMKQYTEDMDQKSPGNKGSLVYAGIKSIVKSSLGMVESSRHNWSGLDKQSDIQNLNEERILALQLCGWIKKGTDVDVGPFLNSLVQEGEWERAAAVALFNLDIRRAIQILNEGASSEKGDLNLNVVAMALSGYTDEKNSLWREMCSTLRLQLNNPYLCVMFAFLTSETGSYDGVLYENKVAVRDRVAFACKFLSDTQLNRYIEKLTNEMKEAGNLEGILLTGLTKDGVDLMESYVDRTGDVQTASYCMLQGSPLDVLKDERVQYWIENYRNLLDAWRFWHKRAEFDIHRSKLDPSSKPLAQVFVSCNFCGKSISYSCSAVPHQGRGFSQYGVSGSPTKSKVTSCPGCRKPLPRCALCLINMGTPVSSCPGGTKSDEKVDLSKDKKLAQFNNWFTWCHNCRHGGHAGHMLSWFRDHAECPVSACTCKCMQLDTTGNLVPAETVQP
# These are yes or no findings as the source states them, for the method shown. For some assays here: Binding seen in cells or lysates may run through a third protein. Some binding calls cover weakened binding; strength is not graded here. For some assays here: Sequences can lack the tags named with a protein.
# How the values were obtained:
# [1] = target: GATOR2, recombinant, transiently co-expressed (HA-Mios, HA-WDR59, HA-WDR24, HA-Sec13, HA-Seh1L) (Homo sapiens (Human)) (UniProt Q9NXC5); assay: anti-FLAG co-immunoprecipitation, transient co-expression in HEK-293T, immunoblot (FIG. 1B)
# [2] = target: GATOR2 complex immunopurified through stably expressed FLAG-WDR24 (human) (UniProt Q9NXC5); assay: anti-FLAG immunoprecipitation of FLAG-WDR24 from HEK-293T, immunoblot (figure not shown)
binding [1],binding [2],Binder
binds,,"FLAG-Sestrin1 (protein, not shown: small tags and cut ends) MAEGENEVRWDGLCSRDSTTRETALENIRQTILRKTEYLRSVKETPHRPSDGLSNTESSDGLNKLLAHLLMLSKRCPFKDVREKSEFILKSIQELGIRIPRPLGQGPSRFIPEKEILQVGSEDAQMHALFADSFAALGRLDNITLVMVFHPQYLESFLKTQHYLLQMDGPLPLHYRHYIGIMAAARHQCSYLVNLHVNDFLHVGGDPKWLNGLENAPQKLQNLGELNKVLAHRPWLITKEHIEGLLKAEEHSWSLAELVHAVVLLTHYHSLASFTFGCGISPEIHCDGGHTFRPPSVSNYCICDITNGNHSVDEMPVNSAENVSVSDSFFEVEALMEKMRQLQECRDEEEASQEEMASRFEIEKRESMFVFSSDDEEVTPARAVSRHFEDTSYGYKDFSRHGMHVPTFRVQDYCWEDHGYSLVNRLYPDVGQLIDEKFHIAYNLTYNTMAMHKDVDTSMLRRAIWNYIHCMFGIRYDDYDYGEINQLLDRSFKVYIKTVVCTPEKVTKRMYDSFWRQFKHSEKVHVNLLLIEARMQAELLYALRAITRYMT"
,binds,endogenous Sestrin1 (protein) MAEGENEVRWDGLCSRDSTTRETALENIRQTILRKTEYLRSVKETPHRPSDGLSNTESSDGLNKLLAHLLMLSKRCPFKDVREKSEFILKSIQELGIRIPRPLGQGPSRFIPEKEILQVGSEDAQMHALFADSFAALGRLDNITLVMVFHPQYLESFLKTQHYLLQMDGPLPLHYRHYIGIMAAARHQCSYLVNLHVNDFLHVGGDPKWLNGLENAPQKLQNLGELNKVLAHRPWLITKEHIEGLLKAEEHSWSLAELVHAVVLLTHYHSLASFTFGCGISPEIHCDGGHTFRPPSVSNYCICDITNGNHSVDEMPVNSAENVSVSDSFFEVEALMEKMRQLQECRDEEEASQEEMASRFEIEKRESMFVFSSDDEEVTPARAVSRHFEDTSYGYKDFSRHGMHVPTFRVQDYCWEDHGYSLVNRLYPDVGQLIDEKFHIAYNLTYNTMAMHKDVDTSMLRRAIWNYIHCMFGIRYDDYDYGEINQLLDRSFKVYIKTVVCTPEKVTKRMYDSFWRQFKHSEKVHVNLLLIEARMQAELLYALRAITRYMT
